# Biological target: SGK1 (human) (UniProt O00141)
# Amino acid sequences for entries named in this document (tags omitted). A change or cut given only in a name is not applied to a line headed by its entry.
# UniProt O00141: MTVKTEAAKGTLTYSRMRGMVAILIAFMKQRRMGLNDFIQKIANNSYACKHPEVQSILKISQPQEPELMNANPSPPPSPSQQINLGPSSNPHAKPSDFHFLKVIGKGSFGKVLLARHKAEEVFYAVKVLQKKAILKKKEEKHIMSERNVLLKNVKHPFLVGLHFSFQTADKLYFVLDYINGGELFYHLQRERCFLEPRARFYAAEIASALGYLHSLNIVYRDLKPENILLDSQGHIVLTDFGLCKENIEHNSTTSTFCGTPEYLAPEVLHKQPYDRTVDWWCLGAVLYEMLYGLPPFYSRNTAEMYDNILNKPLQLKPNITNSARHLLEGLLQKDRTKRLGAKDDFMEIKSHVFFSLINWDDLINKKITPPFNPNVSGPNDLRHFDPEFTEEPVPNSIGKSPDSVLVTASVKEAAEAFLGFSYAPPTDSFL
# Experiment: Flashplate
compound,measurement,value
CSc1ccc(-c2nc(-c3ccc(F)cc3)c(-c3ccncc3)[nH]2)cc1,Ki,> 10 µM

# — the kinase profiling compilation of Christmann-Franck et al. (2016)
